Test results published in patent EP0194864 (dated 1992).
“And” between values parts separate entries of the source, which are not always exact repeats. Equal entries are not always repeated.

Experiment: general procedure: peptide synthesis; trypsin (enzymatic transpeptidation)
Settings: late stage modification step; for final HPLC purity: analytical reverse-phase HPLC, DISC PAGE electrophoresis

Gln^A17,Thr^B30-NH₂ human insulin
final HPLC purity: about 95% | step yield (run 1): 53% and 37%

Lys^B27,Thr^B30-NH₂ human insulin
step yield: 45% | final HPLC purity: 96%

Arg^B27,Lys^B30-NH₂ human insulin
step yield: 22% | final HPLC purity: 92%

Gln^B13,Thr^B30-NH₂ human insulin
step yield: 29% | final HPLC purity: 95%

Arg^B27,Thr^B30-NH₂ human insulin
step yield: 43% | final HPLC purity: about 96%

Lys^B27,Lys^B30-NH₂ human insulin
step yield: 22% | final HPLC purity: 94%

Gln^A17,Lys(Boc)^B30-NH₂ human insulin
step yield: 29%

Gln^A17,Lys^B30-NH₂ human insulin
final HPLC purity: about 97% | step yield (from insulin precursor): 19% | step yield (over last step): 65%
